From the supplement of paper PMC9015667
Structures can show the parent of a compound that is named as a salt. The list shows a part of the results. Single values are uncertain, as repeats are few or missing.

What was measured:
Assay in all cases: reduction in cell viability relative to untreated/vehicle; higher = more growth inhibition
Details in all cases: 200 nM; 72 h
[1] = system: M229P (parental melanoma line)
[2] = system: M229R (matched melanoma line resistant to BRAF inhibitors)
[3] = system: M238P (parental melanoma line)
[4] = system: M238R (matched melanoma line resistant to BRAF inhibitors)
[5] = system: M249P (parental melanoma line)
[6] = system: M249R (matched melanoma line resistant to BRAF inhibitors)
[7] = system: UACC62P (parental melanoma line)
[8] = system: UACC62R (matched melanoma line resistant to BRAF inhibitors)

Measured: reduction in cell viability

Cc1nc(Nc2n[nH]c3c2CN(C(=O)N[C@H](CN(C)C)c2ccccc2)C3(C)C)c2sccc2n1
22.7%: [5]
49.2%: [3]
73.3%: [8]
49.1%: [4]
55%: [6]
55.9%: [7]
25%: [2]
48.5%: [1]

CC[C@H](C)[C@H](N)C1=N[C@H](C(=O)N[C@@H](CC(C)C)C(=O)N[C@H](CCC(=O)[O-])C(=O)N[C@H](C(=O)N[C@H]2CCCCNC(=O)[C@H](CC(N)=O)NC(=O)[C@@H](CC(=O)[O-])NC(=O)[C@H](Cc3cnc[nH]3)NC(=O)[C@@H](Cc3ccccc3)NC(=O)[C@H]([C@@H](C)CC)NC(=O)[C@@H](CCCN)NC2=O)[C@@H](C)CC)CS1.[Zn+2] [Bacitracin Zinc]
< 0%: [1] | [2] | [3] | [4] | [5] | [6] | [7] | [8]

CC(C)(O)Cn1c(NC(=O)c2ccc(-c3cn[nH]c3)s2)nc2cc(CN3CCOCC3)ccc21
38.1%: [4]
79.8%: [8]
47.8%: [6]
87.5%: [3]
54.2%: [2]
45.5%: [1]
44.8%: [5]
72.3%: [7]

Oc1ccc(-c2nc(-c3ccc(F)cc3)c(-c3ccncc3)[nH]2)cc1
< 0%: [1] | [2] | [3] | [4] | [5] | [6] | [7]
13.4%: [8]

Nc1ncn([C@H]2C[C@H](O)[C@@H](CO)O2)c(=O)n1 [Decitabine]
12.3%: [6]
< 0%: [1] | [2] | [3] | [4] | [5] | [7] | [8]

CCN1CCC(n2cc(CNc3cc(Cl)c4ncc(C#N)c(Nc5ccc(F)c(Cl)c5)c4c3)nn2)CC1 [Wyeth Cot inhibitor-2]
< 0%: [1] | [2] | [3] | [4] | [5] | [6] | [7] | [8]

CCCc1cc(=O)[nH]c(=S)[nH]1 [Propylthiouracil]
< 0%: [1] | [2] | [3] | [4] | [5] | [6] | [7] | [8]

A draw from above in order of molecular weight, largest number first:
CCN1CCC(n2cc(CNc3cc(Cl)c4ncc(C#N)c(Nc5ccc(F)c(Cl)c5)c4c3)nn2)CC1 [Wyeth Cot inhibitor-2]
< 0%: [1] | [2] | [3] | [4] | [5] | [6] | [7] | [8]

Cc1nc(Nc2n[nH]c3c2CN(C(=O)N[C@H](CN(C)C)c2ccccc2)C3(C)C)c2sccc2n1
22.7%: [5]
49.2%: [3]
73.3%: [8]
49.1%: [4]
55%: [6]
55.9%: [7]
25%: [2]
48.5%: [1]

CC(C)(O)Cn1c(NC(=O)c2ccc(-c3cn[nH]c3)s2)nc2cc(CN3CCOCC3)ccc21
38.1%: [4]
79.8%: [8]
47.8%: [6]
87.5%: [3]
54.2%: [2]
45.5%: [1]
44.8%: [5]
72.3%: [7]

Oc1ccc(-c2nc(-c3ccc(F)cc3)c(-c3ccncc3)[nH]2)cc1
< 0%: [1] | [2] | [3] | [4] | [5] | [6] | [7]
13.4%: [8]

Nc1ncn([C@H]2C[C@H](O)[C@@H](CO)O2)c(=O)n1 [Decitabine]
12.3%: [6]
< 0%: [1] | [2] | [3] | [4] | [5] | [7] | [8]

CCCc1cc(=O)[nH]c(=S)[nH]1 [Propylthiouracil]
< 0%: [1] | [2] | [3] | [4] | [5] | [6] | [7] | [8]

(next part)

CCN(CC)Cc1ccc2cc(COC(=O)Nc3ccc(C(=O)NO)cc3)ccc2c1 [ITF2357 (Givinostat)]
56.5%: [8]
32.4%: [3]
26.7%: [2]
31.3%: [7]
38.4%: [5]
41%: [6]
5.84%: [1]
< 0%: [4]

O=C1CSC(=O)N1C(CCc1ccncc1)COc1ccc(-c2cccc([N+](=O)[O-])c2)cc1 (configuration not stated)
2.42%: [2]
< 0%: [1] | [3] | [4] | [5] | [6] | [7] | [8]

Cc1c(-c2cccc3c(CCCOc4cccc5ccccc45)c(C(=O)O)n(Cc4cccnc4)c23)c(COc2ccc(N3CCN([S+](=O)([O-])N(C)C)CC3)cc2)nn1C
< 0%: [1] | [2] | [3] | [4] | [5] | [6] | [7] | [8]

COc1cc2c(Nc3ccc(NC(=O)c4ccccc4)cc3)ncnc2cc1OCCCN1CCOCC1
< 0%: [1] | [2] | [4] | [5] | [6] | [7]
16.1%: [3]
33.3%: [8]

COc1cc(CCc2cc(NC(=O)c3ccc(N4CC(C)NC(C)C4)cc3)n[nH]2)cc(OC)c1 (configuration not stated)
< 0%: [1] | [2] | [3] | [4] | [5] | [6] | [7] | [8]

CCN1CCCC1CNC(=O)c1cc(S(=O)(=O)CC)c(N)cc1OC (configuration not stated) [Amisulpride]
< 0%: [1] | [2] | [3] | [4] | [5] | [6] | [7] | [8]

CN(C)C(=N)NC(=N)N [Metformin HCl]
< 0%: [1] | [2] | [3] | [4] | [5] | [6] | [7] | [8]

CNC(=O)c1cc(Oc2ccc(NC(=O)Nc3cc(C(C)(C)C)nn3-c3ccc4ncccc4c3)c(F)c2)ccn1
21.1%: [7]
< 0%: [1] | [2] | [4] | [5] | [6] | [8]
12.5%: [3]

CCN(CC)CCn1c(=O)c(Cc2ccc(OC)cc2)nc2ccccc21 [Caroverine hydrochloride]
3.71%: [7]
< 0%: [1] | [2] | [3] | [5] | [6] | [8]
0.96%: [4]

C[C@H](c1ccc(F)cc1CCCC(=O)O)N(c1cc(F)ccc1F)S(=O)(=O)c1ccc(Cl)cc1
< 0%: [1] | [2] | [3] | [4] | [5] | [6] | [7] | [8]

CC1(C)O[C@H]2CC(=O)OC[C@]23[C@H]2CC[C@@]4(C)[C@H](c5ccoc5)OC(=O)[C@H]5O[C@]54[C@]2(C)C(=O)C[C@@H]13 [Limonin]
< 0%: [1] | [2] | [3] | [4] | [5] | [7] | [8]
1.35%: [6]

O=c1cc(-c2cccc3c2Sc2ccccc2S3)oc(N2CCOCC2)c1
< 0%: [1] | [2] | [3] | [4] | [5] | [6] | [7] | [8]

O=C(NOCC(O)CO)c1cc(Br)c(F)c(F)c1Nc1ccc(I)cc1F (configuration not stated)
52.5%: [5]
20.3%: [1]
46.4%: [7]
< 0%: [2] | [4]
8.73%: [6]
29.7%: [3]
16.3%: [8]

CS(=O)(=O)c1cc(F)cc2c3c(n(Cc4ccc(Cl)cc4)c12)[C@@H](CC(=O)O)CC3 [Laropiprant]
7.79%: [6]
< 0%: [1] | [2] | [3] | [4] | [5] | [7] | [8]

CCCN[C@H]1CCc2nc(N)sc2C1 [Pramipexole hydrochloride]
< 0%: [1] | [2] | [3] | [4] | [5] | [6] | [7] | [8]

COc1ccc(CCN(C)CCCOc2ccc(S(=O)(=O)c3c(C(C)C)n(C)c4ccccc34)cc2)cc1OC
< 0%: [1] | [2] | [3] | [4] | [5] | [6] | [7] | [8]

O=C1NC(=O)C(c2ccccc2[N+](=O)[O-])=C1Nc1ccc(O)c(Cl)c1
< 0%: [1] | [2] | [3] | [4] | [5] | [6] | [7] | [8]
